Data: the supplement of paper PMC10849652
This is one part of the list.

Sequences of proteins named here, by UniProt entry; tags and fusion partners are left off. A change or cut given only in a name is not applied to a line headed by its entry.
UniProt P46734: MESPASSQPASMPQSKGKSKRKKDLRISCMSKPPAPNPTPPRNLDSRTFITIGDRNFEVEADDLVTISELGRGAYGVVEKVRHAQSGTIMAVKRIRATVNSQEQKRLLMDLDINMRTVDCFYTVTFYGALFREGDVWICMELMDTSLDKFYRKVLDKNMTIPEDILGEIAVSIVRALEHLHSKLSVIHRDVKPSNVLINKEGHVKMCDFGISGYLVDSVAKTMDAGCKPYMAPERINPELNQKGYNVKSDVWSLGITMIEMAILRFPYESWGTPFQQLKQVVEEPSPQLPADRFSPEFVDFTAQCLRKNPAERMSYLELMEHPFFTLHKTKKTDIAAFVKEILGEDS
UniProt Q9UI95, whole entry, looked up: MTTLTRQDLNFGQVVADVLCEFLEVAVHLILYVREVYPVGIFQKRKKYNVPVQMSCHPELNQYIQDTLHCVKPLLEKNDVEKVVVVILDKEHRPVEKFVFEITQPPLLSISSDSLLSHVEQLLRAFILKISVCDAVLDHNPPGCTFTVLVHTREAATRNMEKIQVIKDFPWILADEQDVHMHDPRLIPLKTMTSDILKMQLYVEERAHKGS
UniProt P51884: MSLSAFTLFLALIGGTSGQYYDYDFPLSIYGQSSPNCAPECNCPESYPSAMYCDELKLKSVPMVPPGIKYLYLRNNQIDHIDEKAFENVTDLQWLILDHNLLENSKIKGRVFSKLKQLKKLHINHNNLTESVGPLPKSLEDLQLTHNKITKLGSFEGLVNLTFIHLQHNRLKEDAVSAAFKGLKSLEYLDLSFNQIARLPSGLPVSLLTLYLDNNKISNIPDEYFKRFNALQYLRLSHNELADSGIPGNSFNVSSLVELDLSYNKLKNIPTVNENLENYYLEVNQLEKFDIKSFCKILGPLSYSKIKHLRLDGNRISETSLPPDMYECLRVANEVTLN
UniProt Q969L4: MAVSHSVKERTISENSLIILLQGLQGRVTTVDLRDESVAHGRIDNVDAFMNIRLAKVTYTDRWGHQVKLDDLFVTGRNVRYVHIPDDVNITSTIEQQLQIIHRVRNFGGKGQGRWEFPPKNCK
UniProt P10636, whole entry, looked up: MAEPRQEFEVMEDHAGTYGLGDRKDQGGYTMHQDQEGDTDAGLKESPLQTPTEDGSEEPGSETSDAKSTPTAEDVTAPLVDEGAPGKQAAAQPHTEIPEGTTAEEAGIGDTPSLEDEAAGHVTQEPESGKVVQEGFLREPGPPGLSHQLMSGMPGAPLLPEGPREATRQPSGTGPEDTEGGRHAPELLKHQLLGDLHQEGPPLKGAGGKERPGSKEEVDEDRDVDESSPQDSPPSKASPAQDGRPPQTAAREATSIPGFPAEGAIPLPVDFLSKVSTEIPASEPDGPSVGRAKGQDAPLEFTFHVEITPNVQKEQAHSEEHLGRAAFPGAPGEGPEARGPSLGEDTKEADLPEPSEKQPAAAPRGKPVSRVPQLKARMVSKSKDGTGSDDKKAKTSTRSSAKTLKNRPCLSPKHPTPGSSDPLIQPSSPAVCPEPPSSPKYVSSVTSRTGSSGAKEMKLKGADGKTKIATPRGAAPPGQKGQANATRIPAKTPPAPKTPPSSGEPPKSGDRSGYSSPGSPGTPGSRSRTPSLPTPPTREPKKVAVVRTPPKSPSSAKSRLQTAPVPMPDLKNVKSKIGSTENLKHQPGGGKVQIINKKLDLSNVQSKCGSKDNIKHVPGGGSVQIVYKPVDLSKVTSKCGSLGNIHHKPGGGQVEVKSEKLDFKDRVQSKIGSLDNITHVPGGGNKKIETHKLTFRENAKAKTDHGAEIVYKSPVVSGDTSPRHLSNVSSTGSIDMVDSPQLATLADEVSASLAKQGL
UniProt Q99759: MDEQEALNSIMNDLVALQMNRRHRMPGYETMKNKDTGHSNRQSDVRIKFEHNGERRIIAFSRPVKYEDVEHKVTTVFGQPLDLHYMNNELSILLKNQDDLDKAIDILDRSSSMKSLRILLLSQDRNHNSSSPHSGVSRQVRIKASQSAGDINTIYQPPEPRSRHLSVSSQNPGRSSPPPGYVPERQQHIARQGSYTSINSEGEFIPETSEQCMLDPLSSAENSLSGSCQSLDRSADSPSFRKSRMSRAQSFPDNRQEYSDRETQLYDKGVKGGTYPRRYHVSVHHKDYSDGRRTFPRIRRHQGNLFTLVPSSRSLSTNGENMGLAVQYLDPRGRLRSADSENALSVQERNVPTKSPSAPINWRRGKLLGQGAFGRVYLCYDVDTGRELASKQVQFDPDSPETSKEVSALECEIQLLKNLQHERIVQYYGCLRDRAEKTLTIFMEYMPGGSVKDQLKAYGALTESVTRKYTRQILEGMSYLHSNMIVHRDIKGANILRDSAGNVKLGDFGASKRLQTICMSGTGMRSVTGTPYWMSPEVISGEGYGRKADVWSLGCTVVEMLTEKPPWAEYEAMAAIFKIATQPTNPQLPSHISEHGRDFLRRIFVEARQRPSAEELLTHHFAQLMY
UniProt Q9H8J5: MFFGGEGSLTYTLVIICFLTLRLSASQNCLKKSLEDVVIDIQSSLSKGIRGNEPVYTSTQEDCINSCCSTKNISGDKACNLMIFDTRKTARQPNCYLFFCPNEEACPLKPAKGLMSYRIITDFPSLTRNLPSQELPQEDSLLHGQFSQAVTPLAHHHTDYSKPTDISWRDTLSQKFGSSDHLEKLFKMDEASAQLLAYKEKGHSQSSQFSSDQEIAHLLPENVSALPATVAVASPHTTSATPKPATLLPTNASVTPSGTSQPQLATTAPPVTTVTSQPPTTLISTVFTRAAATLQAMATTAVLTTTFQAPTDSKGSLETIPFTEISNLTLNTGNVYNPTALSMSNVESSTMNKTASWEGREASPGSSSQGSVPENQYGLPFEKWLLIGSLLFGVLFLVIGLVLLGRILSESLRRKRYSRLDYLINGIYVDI
UniProt Q13164: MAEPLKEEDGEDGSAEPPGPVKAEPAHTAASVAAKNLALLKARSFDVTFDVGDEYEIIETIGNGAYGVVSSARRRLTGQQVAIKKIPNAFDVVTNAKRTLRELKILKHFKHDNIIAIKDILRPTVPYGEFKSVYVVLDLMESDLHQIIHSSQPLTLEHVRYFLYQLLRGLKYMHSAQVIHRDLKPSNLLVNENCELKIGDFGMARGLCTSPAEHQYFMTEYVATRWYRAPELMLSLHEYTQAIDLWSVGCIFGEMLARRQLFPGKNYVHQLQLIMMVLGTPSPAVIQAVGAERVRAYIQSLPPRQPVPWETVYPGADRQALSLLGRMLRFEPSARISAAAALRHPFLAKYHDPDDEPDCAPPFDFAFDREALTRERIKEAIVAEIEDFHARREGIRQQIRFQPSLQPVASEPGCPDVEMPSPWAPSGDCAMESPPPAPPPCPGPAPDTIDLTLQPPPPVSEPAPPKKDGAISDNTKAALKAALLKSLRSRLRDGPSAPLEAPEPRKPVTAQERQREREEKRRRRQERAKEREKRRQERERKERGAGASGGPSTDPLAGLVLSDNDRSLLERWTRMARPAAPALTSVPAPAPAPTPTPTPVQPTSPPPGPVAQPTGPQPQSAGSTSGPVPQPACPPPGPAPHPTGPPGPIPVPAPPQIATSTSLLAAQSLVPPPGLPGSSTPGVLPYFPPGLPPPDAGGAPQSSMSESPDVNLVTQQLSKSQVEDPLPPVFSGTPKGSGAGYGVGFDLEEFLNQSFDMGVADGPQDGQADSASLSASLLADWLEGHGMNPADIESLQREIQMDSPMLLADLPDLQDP
UniProt Q14766: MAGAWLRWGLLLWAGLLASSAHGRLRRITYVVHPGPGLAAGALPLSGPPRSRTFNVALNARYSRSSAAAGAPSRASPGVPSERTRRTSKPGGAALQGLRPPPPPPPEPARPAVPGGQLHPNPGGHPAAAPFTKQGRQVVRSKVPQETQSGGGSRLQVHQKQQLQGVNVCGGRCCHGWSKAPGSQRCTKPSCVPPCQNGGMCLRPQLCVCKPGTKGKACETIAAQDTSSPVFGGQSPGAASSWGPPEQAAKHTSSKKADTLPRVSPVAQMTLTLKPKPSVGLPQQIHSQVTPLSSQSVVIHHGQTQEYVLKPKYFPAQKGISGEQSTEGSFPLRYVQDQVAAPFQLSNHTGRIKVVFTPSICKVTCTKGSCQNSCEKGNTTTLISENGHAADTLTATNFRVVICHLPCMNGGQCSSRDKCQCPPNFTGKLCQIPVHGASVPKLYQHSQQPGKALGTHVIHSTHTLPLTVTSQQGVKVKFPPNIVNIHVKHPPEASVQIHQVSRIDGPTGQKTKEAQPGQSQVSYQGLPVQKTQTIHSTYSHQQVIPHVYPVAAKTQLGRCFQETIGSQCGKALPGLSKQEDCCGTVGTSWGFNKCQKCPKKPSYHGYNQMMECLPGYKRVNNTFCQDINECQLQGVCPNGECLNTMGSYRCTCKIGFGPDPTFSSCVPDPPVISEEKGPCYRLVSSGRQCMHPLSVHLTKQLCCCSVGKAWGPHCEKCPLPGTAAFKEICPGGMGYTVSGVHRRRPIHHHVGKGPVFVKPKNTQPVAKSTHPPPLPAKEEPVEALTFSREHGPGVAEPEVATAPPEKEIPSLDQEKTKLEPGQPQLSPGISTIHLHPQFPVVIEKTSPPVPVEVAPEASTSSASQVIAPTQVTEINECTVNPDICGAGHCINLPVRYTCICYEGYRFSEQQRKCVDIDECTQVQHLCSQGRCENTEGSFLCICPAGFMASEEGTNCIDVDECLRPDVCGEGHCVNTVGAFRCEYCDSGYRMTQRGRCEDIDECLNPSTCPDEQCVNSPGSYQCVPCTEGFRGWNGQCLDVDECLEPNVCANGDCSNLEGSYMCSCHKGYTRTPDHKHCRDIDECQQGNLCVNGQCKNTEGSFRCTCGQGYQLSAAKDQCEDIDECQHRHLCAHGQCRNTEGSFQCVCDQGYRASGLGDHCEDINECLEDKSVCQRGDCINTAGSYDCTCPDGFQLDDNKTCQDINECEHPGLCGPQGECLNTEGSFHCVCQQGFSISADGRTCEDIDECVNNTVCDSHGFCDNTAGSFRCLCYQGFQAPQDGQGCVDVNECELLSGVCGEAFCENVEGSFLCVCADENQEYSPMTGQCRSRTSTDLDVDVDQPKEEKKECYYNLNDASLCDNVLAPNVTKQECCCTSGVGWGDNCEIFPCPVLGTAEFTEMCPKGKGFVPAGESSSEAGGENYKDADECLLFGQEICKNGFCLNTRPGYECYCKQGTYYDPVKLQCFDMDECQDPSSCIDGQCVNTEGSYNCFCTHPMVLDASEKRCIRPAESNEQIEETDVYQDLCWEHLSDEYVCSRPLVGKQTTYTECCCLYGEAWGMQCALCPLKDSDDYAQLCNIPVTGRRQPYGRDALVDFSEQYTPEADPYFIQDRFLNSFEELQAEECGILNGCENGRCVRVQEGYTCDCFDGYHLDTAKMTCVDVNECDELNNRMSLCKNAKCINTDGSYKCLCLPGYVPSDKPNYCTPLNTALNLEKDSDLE
UniProt Q13163: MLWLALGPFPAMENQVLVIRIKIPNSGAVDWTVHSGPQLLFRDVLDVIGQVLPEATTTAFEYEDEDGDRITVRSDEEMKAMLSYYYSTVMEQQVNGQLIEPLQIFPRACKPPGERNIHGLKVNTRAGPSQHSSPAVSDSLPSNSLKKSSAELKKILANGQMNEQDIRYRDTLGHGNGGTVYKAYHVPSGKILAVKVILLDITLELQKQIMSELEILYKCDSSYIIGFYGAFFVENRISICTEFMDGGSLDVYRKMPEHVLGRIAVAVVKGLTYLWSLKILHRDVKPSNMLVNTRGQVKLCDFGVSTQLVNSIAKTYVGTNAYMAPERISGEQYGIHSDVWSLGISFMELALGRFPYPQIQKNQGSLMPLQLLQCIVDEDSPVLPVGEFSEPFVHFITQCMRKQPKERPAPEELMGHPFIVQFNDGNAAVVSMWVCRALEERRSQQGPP
UniProt Q9Y6D9: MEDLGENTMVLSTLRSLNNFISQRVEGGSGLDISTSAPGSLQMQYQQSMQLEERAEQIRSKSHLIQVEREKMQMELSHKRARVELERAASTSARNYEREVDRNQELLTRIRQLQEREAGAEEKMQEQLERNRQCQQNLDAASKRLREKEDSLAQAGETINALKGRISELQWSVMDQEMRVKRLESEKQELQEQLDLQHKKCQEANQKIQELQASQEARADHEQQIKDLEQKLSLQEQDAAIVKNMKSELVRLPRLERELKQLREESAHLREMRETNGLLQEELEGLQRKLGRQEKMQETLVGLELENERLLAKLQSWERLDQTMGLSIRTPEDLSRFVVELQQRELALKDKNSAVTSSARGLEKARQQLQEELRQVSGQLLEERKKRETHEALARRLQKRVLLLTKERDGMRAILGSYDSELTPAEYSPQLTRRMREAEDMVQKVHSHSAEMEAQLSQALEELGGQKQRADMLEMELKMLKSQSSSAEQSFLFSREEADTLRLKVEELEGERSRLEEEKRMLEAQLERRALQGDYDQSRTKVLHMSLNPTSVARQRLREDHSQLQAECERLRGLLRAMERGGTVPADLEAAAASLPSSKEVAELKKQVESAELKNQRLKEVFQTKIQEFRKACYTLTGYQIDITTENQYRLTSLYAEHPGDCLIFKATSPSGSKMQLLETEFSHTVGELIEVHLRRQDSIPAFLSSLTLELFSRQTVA

Columns and labels:
Test in all cases: log2 fold change, soluble protein after heating vs DMSO (PISA); higher = thermal stabilisation; K562 cells, 10 uM, 30 min; active = over 0.2 and 3.5 SD of the protein, either way, in both replicates (recomputed)
[1] = compound: COC1=CC=C(C=C1)CN2C=CC3=C2C=C(C=C3)C(=O)NO
How it was run: (§1)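 Aliquots of K562 cells (2×10^6 cells/mL) treated with 10 μM compound for 30 min were heated for 3 min over 48°C-58°C. After pooling and extraction in PBS with 0.5% NP-40 at 4°C, soluble protein from a 21,000xg, 90 min spin was quantified by TMTpro 16plex LC-MS/MS with channel sums equalised. Thermal stability is expressed against control samples, from duplicates, as a log2 fold change.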

filanesib = compound: CON(C)C(=O)N1N=C(c2cc(F)ccc2F)S[C@@]1(CCCN)c1ccccc1 [filanesib]
How it was run: as §1

zotarolimus = compound: CO[C@H]1C[C@@H]2CC[C@@H](C)[C@@](O)(O2)C(=O)C(=O)N2CCCC[C@H]2C(=O)O[C@H]([C@H](C)C[C@@H]2CC[C@H](n3cnnn3)[C@H](OC)C2)CC(=O)[C@H](C)/C=C(\C)[C@@H](O)[C@@H](OC)C(=O)[C@H](C)C[C@H](C)/C=C/C=C/C=C/1C [zotarolimus]
How it was run: as §1

idasanutlin = compound: COc1cc(C(=O)O)ccc1NC(=O)[C@@H]1N[C@@H](CC(C)(C)C)[C@](C#N)(c2ccc(Cl)cc2F)[C@H]1c1cccc(Cl)c1F [idasanutlin]
How it was run: as §1

[2] = compound: COc1cc2nc(-c3cc(F)ccc3O)nc(N[C@@H]3CNC[C@H]3C(C)(C)O)c2cc1OC
How it was run: as §1

gefitinib = compound: COc1cc2ncnc(Nc3ccc(F)c(Cl)c3)c2cc1OCCCN1CCOCC1 [gefitinib]
How it was run: as §1

[3] = compound: COc1cccc2cc(-c3nc([C@H]4CC[C@H](C(=O)O)CC4)n4ncnc(N)c34)[nH]c12
How it was run: as §1

lapatinib = compound: CS(=O)(=O)CCNCc1ccc(-c2ccc3ncnc(Nc4ccc(OCc5cccc(F)c5)c(Cl)c4)c3c2)o1 [lapatinib]
How it was run: as §1

pictilisib = compound: CS(=O)(=O)N1CCN(Cc2cc3nc(-c4cccc5[nH]ncc45)nc(N4CCOCC4)c3s2)CC1 [pictilisib]
How it was run: as §1

alisertib = compound: COc1cc(Nc2ncc3c(n2)-c2ccc(Cl)cc2C(c2c(F)cccc2OC)=NC3)ccc1C(=O)O [alisertib]
How it was run: as §1

Measured: log2 fold change

MAP4K4 isoform 3 (UniProt O95819)
inactive: [1] -0.021 | filanesib 0.032 | zotarolimus 0.021 | idasanutlin 0.093 | [2] -0.05 | gefitinib 0.01 | [3] 0.02 | lapatinib -0.021 | pictilisib -0.153

MAP3K2 (UniProt Q9Y2U5)
inactive: [1] 0.065 | filanesib 0.036 | zotarolimus 0.124 | idasanutlin -0.224 | alisertib 0.042 | [2] 0.006 | [3] -0.375 | lapatinib -0.029 | pictilisib -0.124

LYN isoform 2 (UniProt P07948)
inactive: [1] -0.2 | filanesib -0.212 | zotarolimus -0.054 | idasanutlin -0.027 | [2] 0.074 | gefitinib 0.069 | lapatinib -0.046

MAP2K3 isoform 3 (UniProt P46734)
inactive: [1] 0.076 | filanesib 0.01 | zotarolimus -0.018 | idasanutlin -0.019 | alisertib 0.152 | [2] 0.166 | gefitinib -0.086 | [3] -0.022 | lapatinib -0.079 | pictilisib 0.07

LYRM4 (UniProt Q9HD34)
inactive: [1] 0.015 | filanesib -0.069 | zotarolimus 0.006 | idasanutlin -0.058 | alisertib -0.014 | [2] -0.002 | gefitinib -0.022 | [3] 0.008 | lapatinib -0.028 | pictilisib 0.026

LSS (UniProt P48449)
inactive: [1] 0.205 | filanesib 0.026 | zotarolimus -0.027 | idasanutlin -0.116 | alisertib 0.121 | [2] 0.16 | gefitinib 0.126 | [3] -0.014 | lapatinib 0.02 | pictilisib 0.07

MAN2B2 (UniProt Q9Y2E5)
inactive: [1] -0.077 | filanesib -0.027 | idasanutlin -0.012 | alisertib 0.022 | [2] -0.038 | gefitinib 0.044 | [3] 0.075 | lapatinib -0.026

LTBR (UniProt P36941)
inactive: [1] 0.03 | filanesib -0.028 | zotarolimus -0.224 | idasanutlin -0.06 | [2] 0.059 | lapatinib 0.006 | pictilisib 0.001

MAD2L2 (UniProt Q9UI95)
inactive: [1] 0.067 | filanesib 0.114 | zotarolimus 0.233 | idasanutlin -0.12 | pictilisib 0.117

LUM (UniProt P51884)
inactive: [1] -0.151 | filanesib 0.169 | zotarolimus 0 | idasanutlin -0.023 | [2] -0.216 | gefitinib 0.087 | lapatinib 0.067

MAGED1 isoform 2 (UniProt Q9Y5V3)
inactive: filanesib 0.264 | zotarolimus 0.001 | idasanutlin 0.054 | [2] -0.058 | gefitinib 0.228 | lapatinib 0.034

MAN2B1 (UniProt M0QYZ1)
inactive: [1] -0.235 | idasanutlin -0.238 | [2] 0.221 | lapatinib -0.161

LYST (UniProt Q99698)
inactive: alisertib -0.261 | gefitinib -0.051 | [3] 0.426 | pictilisib 0.37

LSM11 (UniProt P83369)
inactive: zotarolimus -0.02 | pictilisib 0.024

LSM10 (UniProt Q969L4)
inactive: [1] 0.087 | [2] 0.06 | gefitinib -0.019 | lapatinib 0.338

MAP4K4 isoform 6 (UniProt O95819)
inactive: filanesib -0.018 | zotarolimus -0.162 | gefitinib -0.028 | [3] -0.179

MAPT isoform 9 (UniProt P10636)
inactive: filanesib 0.088 | idasanutlin -0.142 | [2] -0.025 | lapatinib -0.121

MAP3K3 isoform 2 (UniProt Q99759)
inactive: filanesib 0.133 | zotarolimus 0.026 | alisertib 0.134 | gefitinib 0.024 | [3] 0.105 | pictilisib -0.065

MAGEA1 (UniProt P43355)
inactive: [1] -0.08 | zotarolimus -0.116 | alisertib -0.13 | [2] -0.093 | gefitinib -0.036 | [3] -0.23 | lapatinib 0.03 | pictilisib 0.066

LSG1 (UniProt Q9H089)
inactive: [1] -0.05 | zotarolimus -0.004 | idasanutlin 0.161 | alisertib -0.116 | [2] 0.071 | [3] -0.181 | lapatinib 0.211

MAPK11 (UniProt Q15759)
inactive: [1] -0.126 | pictilisib 0.068

MANSC1 (UniProt Q9H8J5)
inactive: zotarolimus 0.015 | idasanutlin -0.006 | gefitinib -0.062

MAGEB10 (UniProt Q96LZ2)
inactive: zotarolimus 0.023 | idasanutlin 0.184 | gefitinib 0.139

MAFG (UniProt O15525)
inactive: zotarolimus -0.101 | idasanutlin 0.165 | pictilisib -0.142

MAP3K20 isoform 2 (UniProt Q9NYL2)
inactive: [1] 0.044 | filanesib 0.068 | idasanutlin 0.407 | [2] 0.036 | gefitinib -0.003 | [3] -0.242 | lapatinib -0.121

MARCHF3 (UniProt Q86UD3)
inactive: filanesib -0.272 | [2] 0.027 | gefitinib -0.195 | lapatinib -0.033

LRRCC1 (UniProt Q9C099)
inactive: idasanutlin -0.069

MAPK7 (UniProt Q13164)
inactive: [1] -0.066 | idasanutlin 0.003 | pictilisib 0.108

LRRC8B (UniProt Q6P9F7)
inactive: filanesib 0.093 | alisertib -0.05 | [2] -0.011 | gefitinib -0.086 | [3] -0.329 | lapatinib 0.187

MAP4 isoform 5 (UniProt P27816)
inactive: filanesib -0.039 | idasanutlin -0.025 | alisertib 0.143 | [2] -0.033 | gefitinib -0.005 | [3] -0.045 | lapatinib 0.036

MAPRE3 isoform 2 (UniProt Q9UPY8)
inactive: [1] 0.192 | zotarolimus 0.008 | idasanutlin 0.155 | [2] -0.176 | gefitinib -0.02 | lapatinib -0.265

LTBP1 isoform 4 (UniProt Q14766)
inactive: zotarolimus -0.339 | idasanutlin 0.223 | [2] 0.015 | gefitinib 0.178 | lapatinib 0.212 | pictilisib 0.032

LSR isoform 3 (UniProt Q86X29)
inactive: filanesib 0.188 | zotarolimus 0.115 | alisertib -0.011 | [2] 0.041 | [3] 0.033 | lapatinib 0.073

LSR (UniProt M0QZL9)
inactive: filanesib 0.168

LYPLA1, A0A087X1K9
inactive: alisertib -0.052 | [3] 0.043

LSM14A, A0A140TA76
inactive: idasanutlin -0.034 | alisertib 0.083 | [3] -0.141

MAP2K5 (UniProt Q13163)
inactive: [1] 0.206 | zotarolimus 0.003 | idasanutlin -0.117

MAPKAP1 (UniProt Q9BPZ7)
inactive: pictilisib 0.026

MAP3K10 (UniProt Q02779)
inactive: filanesib 0.146 | idasanutlin -0.145 | [2] 0.277 | lapatinib 0.06 | pictilisib 0.245

MAP7D3 (UniProt Q8IWC1)
inactive: filanesib 0.236 | zotarolimus 0.027 | gefitinib 0.007 | pictilisib -0.03

MAD1L1 (UniProt Q9Y6D9)
inactive: [1] 0.076 | zotarolimus -0.061 | idasanutlin 0.056 | alisertib 0.135 | [2] 0.01 | [3] -0.117 | lapatinib 0.061 | pictilisib 0.235

LRRFIP1 isoform 4 (UniProt Q32MZ4)
inactive: [1] -0.061 | zotarolimus 0.202 | idasanutlin 0.108 | pictilisib -0.046

MAGEA8 (UniProt P43361)
inactive: [1] 0.061 | zotarolimus 0.108 | idasanutlin 0.002 | [2] 0.057 | gefitinib -0.069 | lapatinib -0.032 | pictilisib 0.145
